# In the supplement of paper PMC10032668:
# The chains behind the UniProt entries cited, without tags or fusion partners.
# MORF4L2, Q15014, UniProt Q15014, whole entry: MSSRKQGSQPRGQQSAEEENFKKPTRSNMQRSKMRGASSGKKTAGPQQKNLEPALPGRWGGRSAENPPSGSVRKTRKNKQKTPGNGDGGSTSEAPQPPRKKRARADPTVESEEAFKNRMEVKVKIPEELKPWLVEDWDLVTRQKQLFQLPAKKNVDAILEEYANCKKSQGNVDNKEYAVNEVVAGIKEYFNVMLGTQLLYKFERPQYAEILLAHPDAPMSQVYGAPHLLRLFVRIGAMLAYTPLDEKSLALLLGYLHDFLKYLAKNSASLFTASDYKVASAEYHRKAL
# CKS1B, P61024, UniProt P61024, whole entry: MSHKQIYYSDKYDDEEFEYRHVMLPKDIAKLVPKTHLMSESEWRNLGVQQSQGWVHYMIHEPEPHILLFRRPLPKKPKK
# CKS2, P33552, UniProt P33552, whole entry: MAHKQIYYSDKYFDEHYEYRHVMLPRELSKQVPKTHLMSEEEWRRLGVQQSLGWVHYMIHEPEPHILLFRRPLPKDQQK
# NFRKB, Q6P4R8, UniProt Q6P4R8, whole entry: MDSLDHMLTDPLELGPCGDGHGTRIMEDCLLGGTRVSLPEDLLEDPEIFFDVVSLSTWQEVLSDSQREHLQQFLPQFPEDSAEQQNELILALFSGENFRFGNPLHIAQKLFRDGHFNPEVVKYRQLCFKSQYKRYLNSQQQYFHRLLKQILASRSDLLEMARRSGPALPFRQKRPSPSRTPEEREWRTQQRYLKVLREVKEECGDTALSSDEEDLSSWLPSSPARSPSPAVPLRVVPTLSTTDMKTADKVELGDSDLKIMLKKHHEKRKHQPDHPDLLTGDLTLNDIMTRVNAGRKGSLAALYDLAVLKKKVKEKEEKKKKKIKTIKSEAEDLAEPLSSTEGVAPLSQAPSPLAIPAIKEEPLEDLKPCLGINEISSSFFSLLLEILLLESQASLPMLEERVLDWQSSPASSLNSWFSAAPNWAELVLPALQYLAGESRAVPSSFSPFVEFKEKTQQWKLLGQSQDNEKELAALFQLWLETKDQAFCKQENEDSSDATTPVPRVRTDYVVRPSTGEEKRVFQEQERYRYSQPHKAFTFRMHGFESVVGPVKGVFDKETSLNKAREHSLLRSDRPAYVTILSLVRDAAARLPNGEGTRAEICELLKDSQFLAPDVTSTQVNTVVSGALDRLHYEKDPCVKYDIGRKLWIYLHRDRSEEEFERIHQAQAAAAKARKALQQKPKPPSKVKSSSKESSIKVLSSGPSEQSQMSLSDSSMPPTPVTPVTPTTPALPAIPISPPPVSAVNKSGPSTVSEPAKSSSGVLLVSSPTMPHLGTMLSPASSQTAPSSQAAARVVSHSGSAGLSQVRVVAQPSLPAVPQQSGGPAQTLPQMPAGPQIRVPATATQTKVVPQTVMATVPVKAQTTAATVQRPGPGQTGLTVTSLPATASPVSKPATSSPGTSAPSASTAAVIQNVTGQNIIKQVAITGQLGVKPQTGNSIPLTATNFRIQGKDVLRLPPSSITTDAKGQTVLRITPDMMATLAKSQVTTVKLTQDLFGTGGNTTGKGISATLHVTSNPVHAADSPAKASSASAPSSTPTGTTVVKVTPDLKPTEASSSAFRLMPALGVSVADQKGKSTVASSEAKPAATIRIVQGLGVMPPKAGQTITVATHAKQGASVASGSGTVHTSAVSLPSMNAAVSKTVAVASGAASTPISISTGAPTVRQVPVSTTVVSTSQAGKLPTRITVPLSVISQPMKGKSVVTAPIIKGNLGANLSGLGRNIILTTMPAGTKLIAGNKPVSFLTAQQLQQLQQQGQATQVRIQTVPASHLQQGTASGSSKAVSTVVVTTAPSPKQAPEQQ
# PCBP3, P57721, UniProt P57721, whole entry: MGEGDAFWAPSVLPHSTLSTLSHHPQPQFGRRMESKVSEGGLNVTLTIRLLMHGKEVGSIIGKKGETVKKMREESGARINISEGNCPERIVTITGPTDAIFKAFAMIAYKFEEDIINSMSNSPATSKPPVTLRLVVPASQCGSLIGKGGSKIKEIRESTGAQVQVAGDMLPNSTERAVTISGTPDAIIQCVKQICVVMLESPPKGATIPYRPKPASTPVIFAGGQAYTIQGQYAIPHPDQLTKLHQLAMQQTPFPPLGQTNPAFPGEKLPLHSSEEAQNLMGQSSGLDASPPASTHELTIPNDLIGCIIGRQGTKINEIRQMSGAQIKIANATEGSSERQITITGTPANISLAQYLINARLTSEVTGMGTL
# DLX6, P56179, UniProt P56179, whole entry: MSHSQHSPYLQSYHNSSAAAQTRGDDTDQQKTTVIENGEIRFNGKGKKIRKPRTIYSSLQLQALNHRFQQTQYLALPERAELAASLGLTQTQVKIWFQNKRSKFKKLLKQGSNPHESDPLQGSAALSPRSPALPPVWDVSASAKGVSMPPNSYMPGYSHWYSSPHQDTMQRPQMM
# DPYSL3, Q14195, UniProt Q14195, whole entry: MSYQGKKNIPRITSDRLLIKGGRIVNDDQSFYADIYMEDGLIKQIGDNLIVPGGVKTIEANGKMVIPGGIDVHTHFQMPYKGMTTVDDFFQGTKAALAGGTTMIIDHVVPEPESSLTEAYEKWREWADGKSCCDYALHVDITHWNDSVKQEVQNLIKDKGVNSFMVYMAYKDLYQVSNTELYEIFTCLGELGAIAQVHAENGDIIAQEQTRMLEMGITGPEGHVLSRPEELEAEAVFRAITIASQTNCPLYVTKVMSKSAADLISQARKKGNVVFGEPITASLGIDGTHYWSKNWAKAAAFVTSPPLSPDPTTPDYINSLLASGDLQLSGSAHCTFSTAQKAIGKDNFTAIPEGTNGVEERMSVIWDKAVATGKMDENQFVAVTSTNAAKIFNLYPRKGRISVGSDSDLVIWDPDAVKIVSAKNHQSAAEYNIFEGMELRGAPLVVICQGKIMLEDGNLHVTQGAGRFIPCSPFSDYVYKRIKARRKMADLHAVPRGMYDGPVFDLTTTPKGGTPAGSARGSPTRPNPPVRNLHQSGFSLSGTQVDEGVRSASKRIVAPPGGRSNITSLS
# MPG, P29372, UniProt P29372, whole entry: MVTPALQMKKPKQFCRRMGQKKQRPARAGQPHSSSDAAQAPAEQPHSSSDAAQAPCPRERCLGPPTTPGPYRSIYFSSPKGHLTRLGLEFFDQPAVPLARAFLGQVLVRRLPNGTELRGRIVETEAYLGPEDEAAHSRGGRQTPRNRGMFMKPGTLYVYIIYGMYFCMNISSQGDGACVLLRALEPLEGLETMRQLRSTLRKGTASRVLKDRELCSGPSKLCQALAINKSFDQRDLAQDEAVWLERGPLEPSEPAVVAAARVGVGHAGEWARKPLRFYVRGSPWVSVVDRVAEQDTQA
# UFM1, P61960, UniProt P61960, whole entry: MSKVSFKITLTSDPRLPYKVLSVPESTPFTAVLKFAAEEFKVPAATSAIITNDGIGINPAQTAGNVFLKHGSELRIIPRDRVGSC
# HIST1H1C, P16403, UniProt P16403, whole entry: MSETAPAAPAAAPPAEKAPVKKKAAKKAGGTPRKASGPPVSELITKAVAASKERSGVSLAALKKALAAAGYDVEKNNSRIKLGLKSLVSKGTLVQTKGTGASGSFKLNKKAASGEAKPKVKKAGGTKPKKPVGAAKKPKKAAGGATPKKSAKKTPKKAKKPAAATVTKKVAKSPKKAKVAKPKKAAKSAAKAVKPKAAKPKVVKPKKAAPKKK
# HIST1H1D, P16402, UniProt P16402, whole entry: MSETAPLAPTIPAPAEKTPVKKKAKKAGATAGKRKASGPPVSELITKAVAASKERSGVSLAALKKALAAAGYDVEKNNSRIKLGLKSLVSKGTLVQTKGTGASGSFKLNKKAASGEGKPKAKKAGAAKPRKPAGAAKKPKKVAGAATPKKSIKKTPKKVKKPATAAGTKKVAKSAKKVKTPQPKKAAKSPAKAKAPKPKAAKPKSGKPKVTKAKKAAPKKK
# PIN4, Q9Y237, UniProt Q9Y237, whole entry: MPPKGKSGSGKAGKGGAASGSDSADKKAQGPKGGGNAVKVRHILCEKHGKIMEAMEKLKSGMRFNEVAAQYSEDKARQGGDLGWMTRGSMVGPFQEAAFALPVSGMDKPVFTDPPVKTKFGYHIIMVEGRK
# TMA7, Q9Y2S6, UniProt Q9Y2S6, whole entry: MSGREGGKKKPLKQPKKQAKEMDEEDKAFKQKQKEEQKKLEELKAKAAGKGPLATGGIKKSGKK
# Some of the results follow. The list holds hits alone, and they repeat only in part.
# Tests used:
# Test in all cases: PRISMA enrichment of interactor (LFQ) in peptide spot vs all other peptide spots (log2 fold change); higher = stronger / more specific binding of the interactor to the peptide
# [1] = target: BCKDK, O14874
# Experimental: (§1)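 PRISMA: 221 full-length sORF-encoded peptides (3-15 aa), plus SOS1/GLUT1 control peptides, were spot-synthesized on cellulose membranes in triplicate. Membranes were incubated with HEK293T lysate, and bound proteins were identified by LC-MS/MS with LFQ. Enrichment is the log2 fold change versus all other peptide spots; only significant interactors are listed (cutoff c=6, x0=2.8).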
# [2] = target: CCDC137, Q6PK04
# Experimental: as §1
# [3] = target: CLYBL, Q8N0X4
# Experimental: as §1
# [4] = target: CSNK1A1, P48729
# Experimental: as §1
# [5] = target: CSNK1E, P49674
# Experimental: as §1
# [6] = target: DDX47, Q9H0S4
# Experimental: as §1
# [7] = target: EMG1, Q92979
# Experimental: as §1
# [8] = target: IBA57, Q5T440
# Experimental: as §1
# [9] = target: MCAT, Q8IVS2
# Experimental: as §1
# [10] = target: MORF4L2, Q15014
# Experimental: as §1
# [11] = target: SPTSSA, Q969W0
# Experimental: as §1
# [12] = target: ZNF768, Q9H5H4
# Experimental: as §1
# [13] = target: BOLA3, Q53S33
# Experimental: as §1
# [14] = target: CKS1B, P61024
# Experimental: as §1
# [15] = target: CKS2, P33552
# Experimental: as §1
# [16] = target: DNAJB11, Q9UBS4
# Experimental: as §1
# [17] = target: HCFC1, P51610
# Experimental: as §1
# [18] = target: ISCU, Q9H1K1
# Experimental: as §1
# [19] = target: NFRKB, Q6P4R8
# Experimental: as §1
# [20] = target: UMPS, P11172
# Experimental: as §1
# [21] = target: FBXO21, O94952
# Experimental: as §1
# [22] = target: NT5DC2, Q9H857
# Experimental: as §1
# [23] = target: BRIX1, Q8TDN6
# Experimental: as §1
# [24] = target: DERPC, P0CG12
# Experimental: as §1
# [25] = target: PRPF38A, Q8NAV1
# Experimental: as §1
# [26] = target: SNX4, O95219
# Experimental: as §1
# [27] = target: STAU2, Q9NUL3
# Experimental: as §1
# [28] = target: BZW1, Q7L1Q6
# Experimental: as §1
# [29] = target: CCNL2, Q96S94
# Experimental: as §1
# [30] = target: HERC2, O95714
# Experimental: as §1
# [31] = target: PCBP3, P57721
# Experimental: as §1
# [32] = target: SNRPA1, P09661
# Experimental: as §1
# [33] = target: C12orf57, Q99622
# Experimental: as §1
# [34] = target: CSNK2A1, P68400
# Experimental: as §1
# [35] = target: RSL24D1, Q9UHA3
# Experimental: as §1
# [36] = target: TMED7-TICAM2
# Experimental: as §1
# [37] = target: C12orf65, Q9H3J6
# Experimental: as §1
# [38] = target: DLX6, P56179
# Experimental: as §1
# [39] = target: DPYSL3, Q14195
# Experimental: as §1
# [40] = target: FDX1, P10109
# Experimental: as §1
# [41] = target: MRFAP1, Q9Y605
# Experimental: as §1
# [42] = target: NNT, Q13423
# Experimental: as §1
# [43] = target: C19orf53, Q9UNZ5
# Experimental: as §1
# [44] = target: CXorf56, Q9H5V9
# Experimental: as §1
# [45] = target: DNAJA3, Q96EY1
# Experimental: as §1
# [46] = target: GABARAPL2, P60520
# Experimental: as §1
# [47] = target: MPG, P29372
# Experimental: as §1
# [48] = target: NUDT16L1, Q9BRJ7
# Experimental: as §1
# [49] = target: NXF1, Q9UBU9
# Experimental: as §1
# [50] = substrate: PPIF, P30405
# Experimental: as §1
# [51] = target: PPIL2, Q13356
# Experimental: as §1
# [52] = target: UFM1, P61960
# Experimental: as §1
# [53] = target: H1FX, Q92522
# Experimental: as §1
# [54] = target: HIST1H1C, P16403
# Experimental: as §1
# [55] = target: HIST1H1D, P16402
# Experimental: as §1
# [56] = target: HMGN4, O00479
# Experimental: as §1
# [57] = target: HP1BP3, Q5SSJ5
# Experimental: as §1
# [58] = target: MAP4, P27816
# Experimental: as §1
# [59] = target: MRPL3, P09001
# Experimental: as §1
# [60] = target: PIN4, Q9Y237
# Experimental: as §1
# [61] = target: SERF2, P84101
# Experimental: as §1
# [62] = target: TMA7, Q9Y2S6
# Experimental: as §1
# [63] = target: ZNF706, Q9Y5V0
# Experimental: as §1
# [64] = target: MRS2, Q9HD23
# Experimental: as §1
# [65] = target: PRPF31, Q8WWY3
# Experimental: as §1
# [66] = target: TRIM44, Q96DX7
# Experimental: as §1
binder,measurement,setting,value
MARLARDEWND [BFAR],PRISMA enrichment of interactor (log2),[1],8.47
same,PRISMA enrichment of interactor (log2),[2],5.82
same,PRISMA enrichment of interactor (log2),[3],5.42
same,PRISMA enrichment of interactor (log2),[4],7.85
same,PRISMA enrichment of interactor (log2),[5],6.78
same,PRISMA enrichment of interactor (log2),[6],4.61
same,PRISMA enrichment of interactor (log2),[7],5.54
same,PRISMA enrichment of interactor (log2),[8],5.2
same,PRISMA enrichment of interactor (log2),[9],4.42
same,PRISMA enrichment of interactor (log2),[10],6.67
same,PRISMA enrichment of interactor (log2),[11],7.3
same,PRISMA enrichment of interactor (log2),[12],5.21
MPLIQCLCLAVTC [TMEM69],PRISMA enrichment of interactor (log2),[13],5.88
same,PRISMA enrichment of interactor (log2),[14],5.39
same,PRISMA enrichment of interactor (log2),[15],5.24
same,PRISMA enrichment of interactor (log2),[16],5.76
same,PRISMA enrichment of interactor (log2),[17],5.91
same,PRISMA enrichment of interactor (log2),[18],6.22
same,PRISMA enrichment of interactor (log2),[19],4.49
same,PRISMA enrichment of interactor (log2),[20],5.76
MEMVCMLLWKISLS [PCDH9],PRISMA enrichment of interactor (log2),[13],5.42
same,PRISMA enrichment of interactor (log2),[14],5.18
same,PRISMA enrichment of interactor (log2),[21],5.21
same,PRISMA enrichment of interactor (log2),[22],6.58
MQGVPGGLRSPSGE [ANK1],PRISMA enrichment of interactor (log2),[23],7.68
same,PRISMA enrichment of interactor (log2),[24],6.21
same,PRISMA enrichment of interactor (log2),[25],6.31
same,PRISMA enrichment of interactor (log2),[26],6.67
same,PRISMA enrichment of interactor (log2),[27],6.16
MAAPGSDRLLGLRRE [ATG13],PRISMA enrichment of interactor (log2),[28],6.51
same,PRISMA enrichment of interactor (log2),[29],4.61
same,PRISMA enrichment of interactor (log2),[30],4.19
same,PRISMA enrichment of interactor (log2),[31],4.14
same,PRISMA enrichment of interactor (log2),[32],8.95
MCVLKL [ATM],PRISMA enrichment of interactor (log2),[33],3.68
same,PRISMA enrichment of interactor (log2),[34],5.77
same,PRISMA enrichment of interactor (log2),[35],5.06
same,PRISMA enrichment of interactor (log2),[36],6.93
MAAPSRVRCGRLCL [HSPBP1],PRISMA enrichment of interactor (log2),[37],4.98
same,PRISMA enrichment of interactor (log2),[38],4.69
same,PRISMA enrichment of interactor (log2),[39],3.91
same,PRISMA enrichment of interactor (log2),[40],4.69
same,PRISMA enrichment of interactor (log2),[41],6.03
same,PRISMA enrichment of interactor (log2),[42],6.84
MGSMSITWELAAL [TSPAN14],PRISMA enrichment of interactor (log2),[43],6.74
same,PRISMA enrichment of interactor (log2),[14],5.33
same,PRISMA enrichment of interactor (log2),[15],5.96
same,PRISMA enrichment of interactor (log2),[5],6.44
same,PRISMA enrichment of interactor (log2),[44],6.66
same,PRISMA enrichment of interactor (log2),[24],5.25
same,PRISMA enrichment of interactor (log2),[45],5.48
same,PRISMA enrichment of interactor (log2),[46],5.79
same,PRISMA enrichment of interactor (log2),[18],5.73
same,PRISMA enrichment of interactor (log2),[47],5.31
same,PRISMA enrichment of interactor (log2),[48],5.36
same,PRISMA enrichment of interactor (log2),[49],7.24
same,PRISMA enrichment of interactor (log2),[50],5.83
same,PRISMA enrichment of interactor (log2),[51],5.31
same,PRISMA enrichment of interactor (log2),[52],4.61
MMEEAEVEATEC [ADAM9],PRISMA enrichment of interactor (log2),[43],8.76
same,PRISMA enrichment of interactor (log2),[53],6.08
same,PRISMA enrichment of interactor (log2),[54],6.33
same,PRISMA enrichment of interactor (log2),[55],6.82
same,PRISMA enrichment of interactor (log2),[56],4.1
same,PRISMA enrichment of interactor (log2),[57],5.71
same,PRISMA enrichment of interactor (log2),[58],6.79
same,PRISMA enrichment of interactor (log2),[10],6.93
same,PRISMA enrichment of interactor (log2),[59],6.8
same,PRISMA enrichment of interactor (log2),[60],5.79
same,PRISMA enrichment of interactor (log2),[61],7.81
same,PRISMA enrichment of interactor (log2),[62],6.28
same,PRISMA enrichment of interactor (log2),[63],4.78
MADASMLELVVA [SF3B3],PRISMA enrichment of interactor (log2),[43],8.24
same,PRISMA enrichment of interactor (log2),[17],7.44
same,PRISMA enrichment of interactor (log2),[64],6.16
same,PRISMA enrichment of interactor (log2),[19],7.19
same,PRISMA enrichment of interactor (log2),[65],6.04
same,PRISMA enrichment of interactor (log2),[66],9.28

# Shown as tab-separated lines: part of the list above
binder	measurement	setting	value
MARLARDEWND [BFAR]	PRISMA enrichment of interactor (log2)	[8]	5.2
same	PRISMA enrichment of interactor (log2)	[9]	4.42
same	PRISMA enrichment of interactor (log2)	[10]	6.67
same	PRISMA enrichment of interactor (log2)	[11]	7.3
same	PRISMA enrichment of interactor (log2)	[12]	5.21

# Reformatted with bars between the fields: part of the list above.
binder | measurement | setting | value
MPLIQCLCLAVTC [TMEM69] | PRISMA enrichment of interactor (log2) | [16] | 5.76
same | PRISMA enrichment of interactor (log2) | [17] | 5.91
